These are yes or no findings as the source states them, for the method shown.
Key:
Assay in all cases: two-hybrid
[1] = target: T1, DnaA2 of C. trachomatis (C. trachomatis) (UniProt O84277)
T1 sequence: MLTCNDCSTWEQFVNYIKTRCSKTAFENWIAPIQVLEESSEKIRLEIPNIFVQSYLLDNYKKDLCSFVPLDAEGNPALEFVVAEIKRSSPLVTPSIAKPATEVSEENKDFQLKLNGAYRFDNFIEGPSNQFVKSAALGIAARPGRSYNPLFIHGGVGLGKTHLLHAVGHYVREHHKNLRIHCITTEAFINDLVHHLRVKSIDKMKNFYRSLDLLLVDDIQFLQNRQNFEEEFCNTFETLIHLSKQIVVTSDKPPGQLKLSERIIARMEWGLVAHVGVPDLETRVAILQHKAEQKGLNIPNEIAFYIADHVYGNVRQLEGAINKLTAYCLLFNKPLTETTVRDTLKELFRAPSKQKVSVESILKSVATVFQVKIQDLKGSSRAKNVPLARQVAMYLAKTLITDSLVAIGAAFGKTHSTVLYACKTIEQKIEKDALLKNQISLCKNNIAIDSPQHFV

[2] = target: T2, DnaA1 of C. trachomatis (C. trachomatis) (UniProt O84252)
T2 sequence: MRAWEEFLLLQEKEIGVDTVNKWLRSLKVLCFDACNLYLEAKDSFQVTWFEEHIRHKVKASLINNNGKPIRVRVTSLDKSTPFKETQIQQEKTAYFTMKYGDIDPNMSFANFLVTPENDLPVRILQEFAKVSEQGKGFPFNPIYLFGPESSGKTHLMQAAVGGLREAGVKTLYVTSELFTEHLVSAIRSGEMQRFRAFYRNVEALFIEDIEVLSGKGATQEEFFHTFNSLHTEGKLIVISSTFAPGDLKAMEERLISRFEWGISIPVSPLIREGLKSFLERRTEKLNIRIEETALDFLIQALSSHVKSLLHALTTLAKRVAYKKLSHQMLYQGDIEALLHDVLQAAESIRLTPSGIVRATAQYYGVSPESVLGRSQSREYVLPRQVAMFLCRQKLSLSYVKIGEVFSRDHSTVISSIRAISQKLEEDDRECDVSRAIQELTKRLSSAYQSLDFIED

[3] = target: T3, MreB of C. trachomatis (C. trachomatis) (UniProt O84715)
T3 sequence: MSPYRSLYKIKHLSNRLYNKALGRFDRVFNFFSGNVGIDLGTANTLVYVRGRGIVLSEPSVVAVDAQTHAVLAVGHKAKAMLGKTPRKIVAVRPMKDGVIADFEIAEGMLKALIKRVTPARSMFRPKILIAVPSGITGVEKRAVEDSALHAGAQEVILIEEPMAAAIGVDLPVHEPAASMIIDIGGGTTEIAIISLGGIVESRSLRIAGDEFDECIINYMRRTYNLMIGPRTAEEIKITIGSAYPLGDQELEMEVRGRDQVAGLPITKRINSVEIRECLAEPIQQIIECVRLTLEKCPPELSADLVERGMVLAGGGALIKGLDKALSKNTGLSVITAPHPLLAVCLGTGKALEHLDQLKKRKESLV

Measured: binding

BacACT, chlamydial bactofilin encoded by ct276 / ctl_0528
no binding: all assays above

From paper doi:10.1101/2020.10.19.346502
